Test results from the supplement of paper PMC11348887.
Counter-ions that a name gives are not always drawn. Some of the results follow. Most entries show no effect beyond the scatter of the controls.

What follows are compounds tested on hPSC-derived cortical neurons (WA09) (assay: nucleus area z-score vs screen plate; higher = larger nuclei (more mature)). Settings: 5 µM; treatment: days 7-14 after plating, readout day 21.

SMILES | nucleus area z-score
CCC(=O)O[C@]1(C(=O)CCl)[C@@H](C)C[C@H]2[C@@H]3CCC4=CC(=O)C=C[C@]4(C)[C@@]3(F)[C@@H](O)C[C@@]21C [Clobetasol propionate] | 1.17
CCOC(=O)[C@H](CCc1ccccc1)N[C@@H](C)C(=O)N1CCC[C@H]1C(=O)O [Enalapril Maleate] | -0.81
CC(C)CC(=O)Nc1n[nH]c2c1CN(C(=O)C1CCN(C)CC1)C2(C)C | -9.71
CCN1CCC[C@H]1CNC(=O)c1cc(S(N)(=O)=O)ccc1OC [Levosulpiride] | 0.415
CCn1c2ccccc2c2cc(Nc3ccnc(NCCCN4CCOCC4)n3)ccc21 | -13.5
O=C(NCc1cccc(O)c1)Nc1nc(-c2ccncc2)cs1 | 2.49
O=C(NNc1nc2cc(F)ccc2n2cccc12)c1cnccn1 | -3.82
O=C1c2c(O)ccc(O)c2C(=O)c2c(NCCNCCO)ccc(NCCNCCO)c21 [Mitoxantrone] | -2.18
Cc1ncc([N+](=O)[O-])n1CC(C)O (stereo not drawn) [Secnidazole] | 1.19

What follows are compounds tested on hPSC-derived cortical neurons (WA09) (assay: total neurite length per nucleus (MAP2) z-score; higher = more neurite growth). Settings: 5 µM; treatment: days 7-14 after plating, readout day 21.

SMILES | total neurite length per nucleus (z-score)
C=CCNc1ncnc2ccc(Br)cc12 | -0.914
O=C(O)C(O)Cc1ccc(O)c(O)c1 (stereo not drawn) [Sodium Danshensu] | -0.143
CC(=O)N1CCN(c2ccc(OCC3COC(Cn4ccnc4)(c4ccc(Cl)cc4Cl)O3)cc2)CC1 (stereo not drawn) [Ketoconazole] | -0.43
CN1CCOC(c2ccccc2)c2ccccc2C1 (stereo not drawn) [Nefopam HCl] | -0.728
Cc1c(NC(=O)c2ccc(C(C)(C)C)cc2)cccc1-c1cn(C)c(=O)c(Nc2ccc(C(=O)N3CCOCC3)cc2)n1 | 1.45
COc1ccccc1OCC(O)CN1CCN(CC(=O)Nc2c(C)cccc2C)CC1 (stereo not drawn) [Ranolazine 2HCl] | -1.08
CSc1cccc(Nc2ncc3cc(-c4c(Cl)cccc4Cl)c(=O)n(C)c3n2)c1 | 0.734
C=C1C[C@@]2(O)O[C@@]3(C[C@H]2C(C)C)[C@@H](C)CC[C@@H]13 [Curcumol] | 0.0675
CCOC(=O)CC(=O)N1CCSC1COc1ccccc1OC (stereo not drawn) [Moguisteine] | -0.821
Cn1nc(C(C)(C)C)cc1C(=O)N[C@@H](Cc1cccc(Cl)c1)C(=O)NCC#N [Cathepsin Inhibitor 1] | 0.981
O=c1c(O)c(-c2ccc(O)c(O)c2)oc2cc(O)ccc12 [Fisetin] | 0.482
c1ccc2[nH]c(-c3cscn3)nc2c1 [Thiabendazole] | -0.299
COc1cc(C(C)=O)ccc1OCCCN1CCC(c2noc3cc(F)ccc23)CC1 [Iloperidone] | -0.549
CCOC(=O)c1c(C)n(C)c2ccc(O)cc12 [Mecarbinate] | 0.07
CCCCOc1cc(C(=O)NCCN(CC)CC)c2ccccc2n1 [Dibucaine HCl] | -0.0878
CCOc1cc(N)c(Cl)cc1C(=O)NCC1CN(Cc2ccc(F)cc2)CCO1 (stereo not drawn) [Mosapride Citrate] | 0.242
CCCCCCNC(=O)n1cc(F)c(=O)[nH]c1=O [Carmofur] | -0.569
COc1ccc([C@@H]2CC(=O)c3c(O)cc(O)cc3O2)cc1O [Hesperetin] | 0.0841
CC(=O)Oc1cccc2c1C(=O)c1c(OC(C)=O)cc(C(=O)O)cc1C2=O [Diacerein] | 0.438
CN1CCc2nc(C(=O)N[C@@H]3C[C@@H](C(=O)N(C)C)CC[C@@H]3NC(=O)C(=O)Nc3ccc(Cl)cn3)sc2C1 [Edoxaban] | 0.744

SMILES | total neurite length per nucleus (z-score)
O=C1CCC[C@@H]2[C@H]3CCC[N+]4([O-])CCC[C@@H](CN12)[C@@H]34 (stereo partly drawn) [Oxymatrine] | -0.331
CC(C)(C)c1cc(C(=O)C(C#N)=NNc2cccc(Cl)c2)no1 | 0.399
O=[N+]([O-])c1ccc(O)c2ncccc12 [Nitroxoline] | 0.164
COc1ccccc1N1CCN(CCN2C(=O)CC3(CCCC3)CC2=O)CC1 | 0.873
COCCOC(=O)C1=C(C)NC(C)=C(C(=O)OC(C)C)C1c1cccc([N+](=O)[O-])c1 (stereo not drawn) [Nimodipine] | -1.79
CCCc1ccc(OCC(=O)N(Cc2nc(-c3cccnc3)no2)C(C)C)cc1 | 1.5
COc1ccc2cc(CCC(C)=O)ccc2c1 [Nabumetone] | -0.00953
COc1ccccc1C(=O)Nc1cc2c(cc1N1CCCC1)n(C)c(=O)n2C | -0.0388
COc1ccc(-c2cc3c(C)nc(N)nc3n([C@H]3CC[C@H](OCCO)CC3)c2=O)cn1 | -0.831
CC1(C)S[C@@H]2[C@H](NC(=O)[C@H](NC(=O)N3CCN(S(C)(=O)=O)C3=O)c3ccccc3)C(=O)N2[C@H]1C(=O)O [Mezlocillin Sodium] | -0.00277
CCC(=O)O[C@]1(C(=O)CCl)[C@@H](C)C[C@H]2[C@@H]3CCC4=CC(=O)C=C[C@]4(C)[C@@]3(F)[C@@H](O)C[C@@]21C [Clobetasol propionate] | -1.37
CCOC(=O)[C@H](CCc1ccccc1)N[C@@H](C)C(=O)N1CCC[C@H]1C(=O)O [Enalapril Maleate] | 1.34
CC(C)CC(=O)Nc1n[nH]c2c1CN(C(=O)C1CCN(C)CC1)C2(C)C | -3.11
CCN1CCC[C@H]1CNC(=O)c1cc(S(N)(=O)=O)ccc1OC [Levosulpiride] | 1.28
CCn1c2ccccc2c2cc(Nc3ccnc(NCCCN4CCOCC4)n3)ccc21 | -3.77
O=C(NCc1cccc(O)c1)Nc1nc(-c2ccncc2)cs1 | -0.632
O=C(NNc1nc2cc(F)ccc2n2cccc12)c1cnccn1 | 0.684
O=C1c2c(O)ccc(O)c2C(=O)c2c(NCCNCCO)ccc(NCCNCCO)c21 [Mitoxantrone] | -4.2
Cc1ncc([N+](=O)[O-])n1CC(C)O (stereo not drawn) [Secnidazole] | -0.0605
